Source: PubChem BioAssay AID330 (DTP/NCI, 2004)
The list does not hold the whole screen: it is rich in T/C values a quarter to a half above the control, in often repeated tests (any T/C) and in doses without a T/C. Other doses and runs of a compound stand elsewhere. T/C is the treated group as % of the vehicle group. Some doses have a count of surviving animals in place of a T/C: the source holds a T/C of zero for them, seemingly a mark for toxic or unscored doses. Some doses without a T/C left all or most animals alive at the check, yet need not have been tolerated: the source hardly ever lists a survival T/C far under the control, and the zero likely stands for such cases as well. Counts of survivors are from the toxicity check (mostly the fifth day) where no day follows; animals may have died later. Schedule codes are those of the source, read here as Q, the interval in days (D) or hours (H), X, the number of doses. Some entries were tested several times; the values are given in rising order. Where survival is the endpoint, the PubChem record calls one and a half times the control and up active, and a quarter to a half above the control has no call in these data; cut-offs in other NCI protocols can differ. Some T/C values carry the count of animals alive at the toxicity check (mostly the fifth day); where none is given, no animal had died by that day.

System: P388 leukemia ip, CD2F1 mice, survival T/C
Assay: NCI In Vivo Anticancer Drug Screen. Data for tumor model P388 Leukemia (intraperitoneal) in CD2F1 (CDF1) mice
Details: T/C endpoint: median survival time, higher T/C = longer survival
[1] = dose: 240.0 mg/kg/injection, schedule: Q01DX005 (ip), vehicle: saline with Tween-80
[2] = dose: 50.0 mg/kg/injection, schedule: Q01DX005 (ip), vehicle: saline with Tween-80
[3] = dose: 200.0 mg/kg/injection, schedule: Q01DX009 (ip), vehicle: saline with Tween-80
[4] = dose: 50.0 mg/kg/injection, schedule: Q01DX009 (ip), vehicle: saline
[5] = dose: 100.0 mg/kg/injection, schedule: Q01DX009 (ip), vehicle: saline
[6] = dose: 200.0 mg/kg/injection, schedule: Q01DX009 (ip), vehicle: saline
[7] = dose: 50.0 mg/kg/injection, schedule: Q01DX009 (ip), vehicle: Klucel (hydroxypropylcellulose) (HPC)
[8] = dose: 100.0 mg/kg/injection, schedule: Q01DX009 (ip), vehicle: Klucel (hydroxypropylcellulose) (HPC)
[9] = dose: 200.0 mg/kg/injection, schedule: Q01DX005 (ip), vehicle: Klucel (hydroxypropylcellulose) (HPC)
[10] = dose: 50.0 mg/kg/injection, schedule: Q01DX005 (ip), vehicle: Klucel (hydroxypropylcellulose) (HPC)
[11] = dose: 100.0 mg/kg/injection, schedule: Q01DX005 (ip), vehicle: Klucel (hydroxypropylcellulose) (HPC)
[12] = dose: 100.0 mg/kg/injection, schedule: Q01DX009 (ip), vehicle: saline with Tween-80

O=C1c2ccccc2C(=O)C1(c1ccccn1)[N+](=O)[O-]
survivor count [1]: 6 of 6

O=C(O)/C=C/c1ccc(O)c(O)c1
survivor count (dose: 600.0 mg/kg/injection, schedule: Q01DX009 (ip), vehicle: saline): 3 of 6

CC1=C(C)C(=O)C(C(C)(C)CC(=O)N(C)/N=N/c2nc[nH]c2C(N)=O)=C(C)C1=O
T/C [2]: 140 % of control

O=C(O)CC1CCC1CC(=O)O (stereo unspecified)
survivor count [3]: 5 of 6

O=C(N=Nc1c(Cl)c(O)c2ccccc2c1O)C(=O)Nc1ccc(Cl)c([N+](=O)[O-])c1
survivor count [3]: 2 of 6

CCOC(=O)N1C=CC2(C=C1)CCCCCC2
survivor count (dose: 150.0 mg/kg/injection, schedule: Q04DX003 (ip), vehicle: Klucel (hydroxypropylcellulose) (HPC)): 3 of 6

ClCCN(CCCl)c1ccc(CN2CCCCCC2)cc1
survivor count [4]: 5 of 6
survivor count [5]: 1 of 6
survivor count [6]: 0 of 6

COc1ccc2nc(C)cc(N/N=C/c3cccnc3)c2c1
survivor count [7]: 2 of 6
survivor count [8]: 0 of 6
survivor count (dose: 200.0 mg/kg/injection, schedule: Q01DX009 (ip), vehicle: Klucel (hydroxypropylcellulose) (HPC)): 0 of 6

COc1ccc(S(N)(=O)=O)cc1C(=O)NCCN1CCN(c2cccc(C(F)(F)F)c2)CC1
survivor count [9]: 5 of 6

C[CH2][Sn]([CH2]C)([O]C(C)=O)[O][Sn]([CH2]C)([CH2]C)[O]C(C)=O
T/C (dose: 0.78 mg/kg/injection, schedule: Q01DX009 (ip), vehicle: saline): 133 % of control
T/C (dose: 1.56 mg/kg/injection, schedule: Q01DX009 (ip), vehicle: saline): 134 % of control
T/C (dose: 3.12 mg/kg/injection, schedule: Q01DX009 (ip), vehicle: saline): 126 % of control [4 of 6 alive]
survivor count (dose: 6.25 mg/kg/injection, schedule: Q01DX009 (ip), vehicle: saline): 0 of 6
survivor count (dose: 12.5 mg/kg/injection, schedule: Q01DX009 (ip), vehicle: saline): 3 of 6
survivor count (dose: 25.0 mg/kg/injection, schedule: Q01DX009 (ip), vehicle: saline): 0 of 6
survivor count [4]: 0 of 6
survivor count [5]: 0 of 6
survivor count [6]: 0 of 6

CN1CC2(CO)C(c3ccccc3)OC(c3ccccc3)C(CO)(C1)C2O (stereo unspecified)
survivor count [1]: 0 of 6

O=C1C(N=Nc2ccccc2)Sc2nc3ccccc3n21 (stereo unspecified)
survivor count (dose: 240.0 mg/kg/injection, schedule: Q01DX005 (ip), vehicle: Klucel (hydroxypropylcellulose) (HPC)): 4 of 6

O=S1(=O)CS(=O)(=O)OCCCO1
T/C (dose: 3.12 mg/kg/injection, schedule: Q01DX005 (ip), vehicle: Klucel (hydroxypropylcellulose) (HPC)): 136 % of control
T/C (dose: 6.25 mg/kg/injection, schedule: Q01DX005 (ip), vehicle: Klucel (hydroxypropylcellulose) (HPC)): 136 % of control
survivor count (dose: 12.5 mg/kg/injection, schedule: Q01DX005 (ip), vehicle: Klucel (hydroxypropylcellulose) (HPC)): 2 of 6
survivor count (dose: 25.0 mg/kg/injection, schedule: Q01DX005 (ip), vehicle: Klucel (hydroxypropylcellulose) (HPC)): 0 of 6
survivor count [10]: 0 of 5
survivor count [11]: 0 of 5
survivor count [9]: 0 of 5

C[N+]1(C[Si](C)(C)c2ccccc2)CCCCC1
survivor count (dose: 100.0 mg/kg/injection, schedule: Q01DX005 (ip), vehicle: saline): 3 of 6
survivor count (dose: 200.0 mg/kg/injection, schedule: Q01DX005 (ip), vehicle: saline): 0 of 6

COc1ccc2c(c1O)-c1c(O)c(OC)cc3c1[C@H](C2)[N+](C)(C)CC3
survivor count (dose: 100.0 mg/kg/injection, schedule: Q04DX003 (ip), vehicle: saline): 0 of 6
survivor count (dose: 200.0 mg/kg/injection, schedule: Q04DX003 (ip), vehicle: saline): 0 of 6
survivor count (dose: 400.0 mg/kg/injection, schedule: Q04DX003 (ip), vehicle: saline): 0 of 6

C=C(CN(C)C)C(=O)c1ccc(OC)cc1OC
survivor count (dose: 12.5 mg/kg/injection, schedule: Q04DX002 (ip), vehicle: saline): 1 of 6 and 4 of 6
survivor count (dose: 25.0 mg/kg/injection, schedule: Q04DX002 (ip), vehicle: saline): 0 of 6
survivor count (dose: 50.0 mg/kg/injection, schedule: Q04DX002 (ip), vehicle: saline): 0 of 6
survivor count (dose: 100.0 mg/kg/injection, schedule: Q04DX002 (ip), vehicle: saline): 0 of 6
survivor count (dose: 200.0 mg/kg/injection, schedule: Q04DX002 (ip), vehicle: saline): 0 of 6
survivor count (dose: 400.0 mg/kg/injection, schedule: Q04DX002 (ip), vehicle: saline): 0 of 6

CC(=O)C(CSC(=O)c1ccccc1)C(C)=O
survivor count (dose: 400.0 mg/kg/injection, schedule: Q04DX002 (ip), vehicle: Klucel (hydroxypropylcellulose) (HPC)): 0 of 6

O=C(OCC1OC(n2cc(C(F)(F)F)c(=O)[nH]c2=O)CC1O)c1ccc([N+](=O)[O-])cc1 (stereo unspecified)
T/C [10]: 142 % of control
survivor count [11]: 6 of 6
survivor count [9]: 6 of 6

CC(NCCN(C)C)C1CC2CCCCN2C1 (stereo unspecified)
survivor count [1]: 1 of 6

C=C(C)C12OC3(CCCCCCCCC)OC1C1C4OC4(CO)C(O)C4(O)C(=O)C(C)=CC4C1(O3)C(C)C2OC(C)=O (stereo unspecified)
survivor count (dose: 400.0 micrograms/kg/injection, schedule: Q01DX009 (ip), vehicle: saline + alcohol): 6 of 6

Cc1cc(N(C)C)nc2cc(N(C)C)ccc12
survivor count [12]: 3 of 6
survivor count [3]: 3 of 6

O=P(c1ccccc1)(c1ccccc1)c1ccccc1.O=P(c1ccccc1)(c1ccccc1)c1ccccc1.O=P(c1ccccc1)(c1ccccc1)c1ccccc1.O=P(c1ccccc1)(c1ccccc1)c1ccccc1.[Ni+2].[O-][Cl+3]([O-])([O-])O
survivor count [12]: 6 of 6
survivor count [3]: 1 of 6

CCCCC1CN=C(OCC)N1 (stereo unspecified)
survivor count (dose: 25.0 mg/kg/injection, schedule: Q01DX005 (ip), vehicle: saline with Tween-80): 2 of 6
survivor count [2]: 0 of 6
survivor count (dose: 100.0 mg/kg/injection, schedule: Q01DX005 (ip), vehicle: saline with Tween-80): 0 of 6
survivor count (dose: 200.0 mg/kg/injection, schedule: Q01DX005 (ip), vehicle: saline with Tween-80): 0 of 6

Clc1ccc(Cl)c(N=NNc2cc(Cl)ccc2Cl)c1
T/C (dose: 50.0 mg/kg/injection, schedule: Q01DX009 (ip), vehicle: saline with Tween-80): 125 % of control
T/C [12]: 133 % of control
survivor count [3]: 0 of 6

CCOC(=O)Nc1cc2c(c(N)n1)N=C(c1ccc(F)cc1)CN2
T/C (dose: 1.3 mg/kg/injection, schedule: Q01DX005 (ip), vehicle: saline with Tween-80): 127 % of control
T/C (dose: 2.0 mg/kg/injection, schedule: Q01DX005 (ip), vehicle: saline with Tween-80): 136 % of control
T/C (dose: 3.0 mg/kg/injection, schedule: Q01DX005 (ip), vehicle: saline with Tween-80): 140 and 149 % of control
T/C (dose: 4.5 mg/kg/injection, schedule: Q01DX005 (ip), vehicle: saline with Tween-80): 138 % of control
survivor count (dose: 6.0 mg/kg/injection, schedule: Q01DX005 (ip), vehicle: saline with Tween-80): 5 of 5
survivor count (dose: 12.0 mg/kg/injection, schedule: Q01DX005 (ip), vehicle: saline with Tween-80): 1 of 5

CCCCCCCCCCCCN(O)C(=O)c1ccccc1
survivor count [8]: 5 of 6

CC1=COC2CCCCC2O1 (stereo unspecified) (tested in a mixture with another compound)
T/C (dose: 100.0 mg/kg/injection, schedule: Q01DX009 (ip), vehicle: acetone): 133 % of control

COc1cc(NS(C)(=O)=O)ccc1Nc1c2ccccc2nc2c(C)cccc12
T/C (dose: 0.62 mg/kg/injection, schedule: Q01DX009 (ip), vehicle: saline with Tween-80): 145 % of control [5 of 6 alive]
survivor count (dose: 12.5 mg/kg/injection, schedule: Q01DX009 (ip), vehicle: Klucel (hydroxypropylcellulose) (HPC)): 6 of 6
survivor count (dose: 25.0 mg/kg/injection, schedule: Q01DX009 (ip), vehicle: Klucel (hydroxypropylcellulose) (HPC)): 4 of 6
survivor count [7]: 2 of 6
